Consider five molecules from publication PMC8368100, “Structural basis for ALK2/BMPR2 receptor complex signaling through kinase domain oligomerization” (Nature Communications, 2021).

Amino acid sequences for entries named in this document (tags omitted). A change or cut given only in a name is not applied to a line headed by its entry. Chains listed by the source or under a name are the forms on record and can include a tag or linker. Residues count along the entry.
BMPR2 kinase domain (BMPR2^KD, residues 189-529) (Q13873, residues 189-529): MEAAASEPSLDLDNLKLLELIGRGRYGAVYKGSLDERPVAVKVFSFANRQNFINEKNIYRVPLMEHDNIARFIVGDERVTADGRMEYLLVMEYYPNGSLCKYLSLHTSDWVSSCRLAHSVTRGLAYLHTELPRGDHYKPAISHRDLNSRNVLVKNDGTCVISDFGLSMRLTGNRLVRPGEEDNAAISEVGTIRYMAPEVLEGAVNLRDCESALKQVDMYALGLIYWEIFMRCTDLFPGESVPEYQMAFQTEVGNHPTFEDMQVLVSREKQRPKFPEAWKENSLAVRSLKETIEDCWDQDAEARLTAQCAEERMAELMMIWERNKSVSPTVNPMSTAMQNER
BMPR2^KD-EDE (BMPR2 kinase domain E464R/D487R/E489R) (Q13873, form named): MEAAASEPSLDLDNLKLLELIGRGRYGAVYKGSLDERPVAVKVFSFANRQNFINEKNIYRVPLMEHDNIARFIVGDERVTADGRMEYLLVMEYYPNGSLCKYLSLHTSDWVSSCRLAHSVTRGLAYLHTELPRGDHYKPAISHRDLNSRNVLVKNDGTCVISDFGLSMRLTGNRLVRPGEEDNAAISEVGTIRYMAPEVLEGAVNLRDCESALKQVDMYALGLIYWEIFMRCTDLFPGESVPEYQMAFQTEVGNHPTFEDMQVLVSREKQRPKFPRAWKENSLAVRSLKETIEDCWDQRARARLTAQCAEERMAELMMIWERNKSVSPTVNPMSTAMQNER
BMPR2^KD-EED (BMPR2 kinase domain E478R/E481R/D482R) (Q13873, form named): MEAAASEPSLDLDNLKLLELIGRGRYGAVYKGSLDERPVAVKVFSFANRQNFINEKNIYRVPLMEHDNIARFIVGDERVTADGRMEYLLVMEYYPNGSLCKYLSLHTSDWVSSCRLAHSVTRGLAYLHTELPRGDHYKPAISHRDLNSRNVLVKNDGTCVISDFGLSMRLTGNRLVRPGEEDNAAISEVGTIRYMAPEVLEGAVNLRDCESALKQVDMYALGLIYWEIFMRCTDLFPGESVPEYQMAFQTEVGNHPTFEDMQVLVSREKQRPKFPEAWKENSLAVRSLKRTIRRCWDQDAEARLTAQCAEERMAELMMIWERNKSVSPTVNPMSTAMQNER
BMPR2^KD-D485G (BMPR2 kinase domain with the PAH mutation D485G) (Q13873, form named): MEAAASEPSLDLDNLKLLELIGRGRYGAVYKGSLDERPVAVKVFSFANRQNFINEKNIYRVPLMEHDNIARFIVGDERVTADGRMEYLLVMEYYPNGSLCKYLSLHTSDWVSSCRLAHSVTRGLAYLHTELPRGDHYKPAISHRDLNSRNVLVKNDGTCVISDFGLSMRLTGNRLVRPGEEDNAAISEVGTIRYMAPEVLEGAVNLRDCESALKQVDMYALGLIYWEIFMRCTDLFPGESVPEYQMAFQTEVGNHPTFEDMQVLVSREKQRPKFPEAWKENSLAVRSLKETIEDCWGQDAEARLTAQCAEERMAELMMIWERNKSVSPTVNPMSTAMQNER

Assay [1] deals with BMPR2 kinase domain (BMPR2^KD, residues 189-529) (human) (UniProt Q13873). Description: SEC; Superdex 200 Increase 10/300 GL; kinase domains alone or as a stoichiometric mixture; also run in buffers with increasing NaCl; both purified.
Assay [2] shares this target. Description: SEC-SAXS; kinase domains alone or in complex at 100 µM in 20 mM HEPES pH 8.0, 100 mM NaCl, 0.1 mM TCEP; twin-tandem Superdex 200 3.2/30 GL columns, room temperature; both purified. For orientation: Size exclusion chromatography separates by hydrodynamic size, large species first.
Assay [3] deals with BMPR2^KD-EDE (BMPR2 kinase domain E464R/D487R/E489R) (human) (UniProt Q13873). Briefly: SEC; Superdex 200 Increase 10/300 GL; kinase domains alone or as a stoichiometric mixture; also run in buffers with increasing NaCl; both purified.
Assay [4] addresses BMPR2^KD-EED (BMPR2 kinase domain E478R/E481R/D482R) (human) (UniProt Q13873). Described as above.
Assay [5] deals with ALK2 kinase domain (ALK2^KD, residues 201-499) (human) (UniProt Q04771). The description is as above.
For assay [6], the target named is BMPR2^KD-D485G (BMPR2 kinase domain with the PAH mutation D485G) (human) (UniProt Q13873). The description is as above.
The target of assay [7] is ALK2 kinase domain (ALK2^KD, residues 201-499) (human) (UniProt Q04771). Briefly: SEC-SAXS; kinase domains alone or in complex at 100 µM in 20 mM HEPES pH 8.0, 100 mM NaCl, 0.1 mM TCEP; twin-tandem Superdex 200 3.2/30 GL columns, room temperature; both purified.
The target in assay [8] is BMPR2 kinase domain (BMPR2^KD, residues 189-529) (human) (UniProt Q13873). Description: SEC; Superdex 200 Increase 10/300 GL; kinase domains alone or as a stoichiometric mixture; also run in buffers with increasing NaCl; both purified. The source holds these as a separate data set.
Assay [9] shares this target. Description: HDX-MS; each kinase alone against an equimolar solution of both; 6.3 µM kinase, 96% D2O, 50 mM HEPES pD 7.5, 50 mM KCl, 5 mM DTT, 23 °C; 15, 180, 900 s; pepsin digestion; both purified.

Where a chain is given by its changes, count along the chain named. Names and notes keep the numbering of the source. No constants are given. Whether binding was seen depends on the method and setting. Some entries that bind do so weakly or less than the wild type.

With “BMPR2 kinase domain (BMPR2^KD, residues 189-529) (from UniProt Q13873 189-529) (domain or fragment)”, the binding result in assay [1] is “no binding”; in assay [2], “no binding (tested: 100 µM)”.

B1: ALK2 kinase domain (ALK2^KD, residues 201-499) (domain or fragment, human, UniProt Q04771 201-499, looked up)
chain: QRTVARQITLLECVGKGRYGEVWRGSWQGENVAVKIFSSRDEKSWFRETELYNTVMLRHENILGFIASDMTSRHSSTQLWLITHYHEMGSLYDYLQLTTLDTVSCLRIVLSIASGLAHLHIEIFGTQGKPAIAHRDLKSKNILVKKNGQCCIADLGLAVMHSQSTNQLDVGNNPRVGTKRYMAPEVLDETIQVDCFDSYKRVDIWAFGLVLWEVARRMVSNGIVEDYKPPFYDVVPNDPSFEDMRKVVCVDQQRPNIPNRWFSDPTLTSLAKLMKECWYQNPSARLTALRIKKTLTKID
notes: ALK2 (ACVR1), type I BMP receptor, kinase domain without the GS domain, residues 201-499; TEV site between His tag and kinase domain; also called ACVR1; ActRIA; source: SF9 insect cells, purified (Ni-NTA, TEV cleavage, SEC); not shown: His tag, N-terminal, cleaved
Take B1: the binding entry was “no binding” in assay [3]; “binds weakly” in [4]; “no binding” in assay [5]; “no binding” in [6]; “no binding (tested: 100 µM)” in assay [7].

B2: ALK2^KD-KK (ALK2 kinase domain K492A/K493A) (domain or fragment, UniProt Q04771 201-499)
chain: B1 chain with K292A, K293A
In the case of B2, the binding result in assay [8] is listed as “no binding”.

B3: ALK2^KD-K493A (ALK2 kinase domain K493A) (domain or fragment, UniProt Q04771 201-499)
chain: B1 chain with K293A
Regarding B3, the binding entry in assay [8] is on record as “no binding”.

B4: ALK2 kinase domain with the GS domain (GS-ALK2^KD, residues 172-499) (domain or fragment, UniProt Q04771 172-499)
chain: TTNVGDSTLADLLDHSCTSGSGSGLPFLVQRTVARQITLLECVGKGRYGEVWRGSWQGENVAVKIFSSRDEKSWFRETELYNTVMLRHENILGFIASDMTSRHSSTQLWLITHYHEMGSLYDYLQLTTLDTVSCLRIVLSIASGLAHLHIEIFGTQGKPAIAHRDLKSKNILVKKNGQCCIADLGLAVMHSQSTNQLDVGNNPRVGTKRYMAPEVLDETIQVDCFDSYKRVDIWAFGLVLWEVARRMVSNGIVEDYKPPFYDVVPNDPSFEDMRKVVCVDQQRPNIPNRWFSDPTLTSLAKLMKECWYQNPSARLTALRIKKTLTKID
For B4, in assay [9], the binding result is on record as “binds”.
